Primary screen of a compound library

Sequences of proteins named here, by UniProt entry; tags and fusion partners are left off. Residues count along the entry.
UniProt P9WFT3, whole entry: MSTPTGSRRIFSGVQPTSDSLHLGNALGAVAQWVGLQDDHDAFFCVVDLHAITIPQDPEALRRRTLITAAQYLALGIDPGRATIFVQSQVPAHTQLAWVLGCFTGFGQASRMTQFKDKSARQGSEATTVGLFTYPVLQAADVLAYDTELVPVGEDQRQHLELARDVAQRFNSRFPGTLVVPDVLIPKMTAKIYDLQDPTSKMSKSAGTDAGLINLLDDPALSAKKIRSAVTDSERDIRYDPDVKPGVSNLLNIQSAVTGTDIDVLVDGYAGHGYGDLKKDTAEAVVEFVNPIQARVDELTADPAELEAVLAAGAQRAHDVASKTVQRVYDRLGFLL
UniProt Q8IDJ8, 1-583: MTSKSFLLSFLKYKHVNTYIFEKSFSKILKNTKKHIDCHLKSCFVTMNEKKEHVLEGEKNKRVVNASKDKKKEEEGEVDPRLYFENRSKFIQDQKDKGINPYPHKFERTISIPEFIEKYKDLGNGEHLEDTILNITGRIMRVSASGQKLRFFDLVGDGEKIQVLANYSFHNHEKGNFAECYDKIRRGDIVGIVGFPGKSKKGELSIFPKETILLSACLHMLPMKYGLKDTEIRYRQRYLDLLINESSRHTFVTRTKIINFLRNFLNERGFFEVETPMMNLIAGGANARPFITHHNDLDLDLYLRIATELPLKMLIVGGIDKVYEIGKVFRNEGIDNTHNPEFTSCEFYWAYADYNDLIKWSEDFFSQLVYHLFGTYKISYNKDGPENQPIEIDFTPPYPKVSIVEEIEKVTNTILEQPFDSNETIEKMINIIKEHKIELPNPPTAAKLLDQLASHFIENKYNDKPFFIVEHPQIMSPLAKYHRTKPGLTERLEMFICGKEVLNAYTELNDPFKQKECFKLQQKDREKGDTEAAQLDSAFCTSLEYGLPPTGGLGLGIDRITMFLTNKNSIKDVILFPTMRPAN
UniProt P9WNZ1, whole entry: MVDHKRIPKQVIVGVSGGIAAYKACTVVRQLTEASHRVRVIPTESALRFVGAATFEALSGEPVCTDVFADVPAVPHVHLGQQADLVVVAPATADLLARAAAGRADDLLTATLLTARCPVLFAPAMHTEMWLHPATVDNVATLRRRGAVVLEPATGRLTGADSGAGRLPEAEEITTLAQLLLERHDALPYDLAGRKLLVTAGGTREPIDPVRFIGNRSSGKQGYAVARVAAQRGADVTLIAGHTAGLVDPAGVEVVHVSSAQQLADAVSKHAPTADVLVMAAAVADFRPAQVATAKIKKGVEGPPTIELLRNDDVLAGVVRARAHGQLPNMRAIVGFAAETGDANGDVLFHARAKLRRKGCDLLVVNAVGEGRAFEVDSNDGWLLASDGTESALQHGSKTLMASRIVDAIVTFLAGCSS
UniProt P9WPC5, whole entry: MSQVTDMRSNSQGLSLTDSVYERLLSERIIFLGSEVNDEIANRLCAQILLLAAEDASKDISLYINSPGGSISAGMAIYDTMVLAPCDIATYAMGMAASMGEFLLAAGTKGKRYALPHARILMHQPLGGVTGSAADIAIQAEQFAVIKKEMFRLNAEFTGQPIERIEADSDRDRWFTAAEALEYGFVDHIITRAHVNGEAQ
UniProt P9WPC3, whole entry partner: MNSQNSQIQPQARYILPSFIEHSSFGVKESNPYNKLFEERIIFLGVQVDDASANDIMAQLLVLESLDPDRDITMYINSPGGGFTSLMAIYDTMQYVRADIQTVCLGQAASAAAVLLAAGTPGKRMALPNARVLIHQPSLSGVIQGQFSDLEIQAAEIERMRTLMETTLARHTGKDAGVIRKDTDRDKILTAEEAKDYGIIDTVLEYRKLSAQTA
UniProt Q4DA54, 1-478: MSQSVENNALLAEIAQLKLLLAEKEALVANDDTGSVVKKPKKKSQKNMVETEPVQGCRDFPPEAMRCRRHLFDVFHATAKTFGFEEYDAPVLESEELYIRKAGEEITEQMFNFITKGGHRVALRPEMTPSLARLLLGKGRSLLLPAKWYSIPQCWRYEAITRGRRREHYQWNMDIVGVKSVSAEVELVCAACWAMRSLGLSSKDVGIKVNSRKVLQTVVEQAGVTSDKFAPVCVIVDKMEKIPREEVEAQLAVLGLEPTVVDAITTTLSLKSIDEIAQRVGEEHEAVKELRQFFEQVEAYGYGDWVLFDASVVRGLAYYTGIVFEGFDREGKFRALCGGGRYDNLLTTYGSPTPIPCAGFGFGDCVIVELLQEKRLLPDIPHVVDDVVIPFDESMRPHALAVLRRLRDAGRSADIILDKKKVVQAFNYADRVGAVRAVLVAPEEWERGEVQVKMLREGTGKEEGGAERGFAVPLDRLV

Data taken from ChEMBL document CHEMBL3988442, “University of Dundee, Small-Polar-MMV Screening Library” (2021).

MtTrpRS: 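Enzyme assay of tryptophanyl-tRNA synthetase; the read-out is not stated. Target: Tryptophan-tRNA ligase, Mycobacterium tuberculosis (UniProt P9WFT3). Compounds at 10 µM. Direction is not recorded; retested compounds ran higher, which suggests that high means inhibition. Size under these conditions: about 65,000 compounds, about 64 of them at 50% or above in at least one test.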
PfKRS1: 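Enzyme assay of the cytosolic lysyl-tRNA synthetase in 384-well plates, read by luminescence. Target: Lysine-tRNA ligase, Plasmodium falciparum 3D7 (UniProt Q8IDJ8). Tested at 30 µM. Direction is inferred from only a few compounds that gave an IC50; most scored high, so higher reads as stronger inhibition. About 69,000 compounds were tested under these conditions; 0.071% (about 49) showed 50% or more at least once.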
CoaBC: 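Enzyme assay of CoaBC with a phosphate dye (Biomol Green) read at 650 nm. Target: Coenzyme A biosynthesis protein CoaBC, Mycobacterium tuberculosis (UniProt P9WNZ1). Compounds at 30 µM. Direction is inferred from only a few compounds that gave an IC50; most scored high, so higher reads as stronger inhibition. Most strong results did not repeat in a second test. About 67,000 compounds were tested under these conditions; 0.06% (about 40) showed 50% or more at least once.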
ClpP1P2: 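Protease assay of ClpP1P2, read by the AMC dye that it sets free. Target: ClpP1P2, Mycobacterium tuberculosis (UniProt P9WPC5 and UniProt P9WPC3). Tested at 50 µM. Direction is inferred from only a few compounds that gave an IC50; most scored high, so higher reads as stronger inhibition. Most other retested compounds had strongly negative values. About 69,000 compounds were tested under these conditions; 0.015% (about 10) showed 50% or more at least once.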
TcHisRS: 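Enzyme assay of histidyl-tRNA synthetase; the read-out is not stated. Target: Histidine-tRNA ligase, Trypanosoma cruzi CL Brener (UniProt Q4DA54). Tested at 30 µM. The record gives no direction; compounds that gave an IC50 in retests scored well above the rest, so higher reads as stronger inhibition. Of about 69,000 compounds tested this way, about 31 (0.045%) reached 50% or more in at least one test.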

Values are the deposited “Percent Effect”, in %. How 0% and 100% were set is not recorded. Most values in the screen are low, and negative values occur. The compounds are a random part of those screened. Two or more numbers in one place are separate tests of the same structure; such repeats can differ widely. A dash means the value is not listed here; it may have been measured.

| SMILES | MtTrpRS | PfKRS1 | CoaBC | ClpP1P2 | TcHisRS |
|---|---|---|---|---|---|
| `C[C@@H]1CN(C(=O)c2ccc(C#N)nc2)C[C@@]1(O)C1CC1` | -1.161% | -0.2544% | 13.43% | -19.43% | -1.667% |
| `COc1ccc(OC)c(CN2CCC(c3cc(O)nc(C)n3)C2)c1` (stereo not given) | - | 0.8033% | 1.942% | -8.676% | 8.791% |
| `Cc1noc(CCNC(=O)NCc2ccc(N3CCCCC3)cc2)n1` | -2.166% | -0.3041% | 3.893% | -1.295% | -1.064% |
| `COCCNC(=O)CCNc1cc(C)nc(-c2ccncc2)n1` | 3.154% | 4.27% | 2.116% & 23.54% | 0.8799% | 0.8772% |
| `CC1c2ncc(COc3cccnc3)n2CCN1Cc1ccco1` (stereo not given) | - | 1.202% | 6.807% | -5.713% | 4.523% |
| `CCOc1ncccc1CNS(=O)(=O)N1CCOCC1` | 1.728% | 4.112% | -1.716% | 3.28% | 4.762% |
| `Cc1cc(CN(C)C(=O)NC(C)Cc2ccco2)no1` (stereo not given) | -1.644% | 1.867% | 7.025% | -4.517% | 5.978% |
| `CC(C)NC(=O)c1nc(Cn2c(C(F)F)nc3ccccc32)no1` | 5.299% | 1.198% | 1.294% | 1.979% | 1.005% |
| `O=S(=O)(C1CC1)N1CC[C@H](OCC2CC2)[C@@H]1Cc1cccnc1` | 0.541% | -3.263% | 1.426% | -3.751% | 2.299% |
| `Cn1cccc1C(=O)N[C@@H]1CN(Cc2ccsc2)[C@@H]2COC[C@@H]21` | -1.627% | 12.58% | 5.537% | 3.133% | 4.902% |
| `CCn1nnc2c1C(COCCN(C)C)CN(Cc1ccc(C)s1)C2` (stereo not given) | -9.528% | 3.612% | -15.31% | -6.064% | 9.346% |
| `CN1CC2(CCCN(Cc3cccc(CCN)c3)C2)OC1=O` (stereo not given) | 0.5161% | 2.206% | -10.77% | -8.153% | 9.091% |
| `CC(C)CC(=O)N1CCN(Cc2cc(-c3ccncc3)nn2C)CC1` | - | 6.841% | 2.941% | 15.07% | 18.09% |
| `c1cc(-c2noc(CN3CCn4c(nnc4C4CC4)C3)n2)cs1` | -2.54% | 1.667% | 3.158% | -21.51% | 7.331% |
| `CNC(=O)NC(=O)CCSCc1cc(F)cc2cccnc12` | -0.9517% | 6.625% | 1.392% | -0.5374% | 2.439% |
| `CCN1CCN(c2ncc(-c3cc(C)no3)c(-c3ccoc3C)n2)CC1` | 1.589% | 7.165% | 3.611% | 4.569% | 2.703% |
| `O=C(O)[C@]12CCCN(Cc3nccs3)[C@@H]1CCN(c1cnccn1)C2` | -2.183% | 5.695% | 1.542% | 6.12% | -25.7% |
| `CN1CCC(n2nc(CC3CC3)nc2-c2ccc(F)cc2Cl)CC1` | -7.831% | 0.8383% | 11.6% | -17.68% | 0.4975% |
| `O=C(c1ccc[nH]1)N1CCCn2c(CNC3CCC3)nnc2C1` | - | 2.908% | 5.185% | 0.4609% | 14.81% |
| `COCCN1CCCC2(CCN(c3ncc(Cl)cc3Cl)C2)C1=O` (stereo not given) | 0.06915% | 7.854% | 2.228% | -18.42% | 6.024% |
| `Cc1nn(C)c(C)c1S(=O)(=O)N1CC[C@@H]2O[C@@H](C)C[C@H]2C1` | -4.942% | 4.162% | 2.96% | 0.7363% | 1.942% |
| `CN(c1ncccc1CNCc1ncc[nH]1)C1CCCCC1` | 1.493% | 3.695% | 2.662% | -18.09% | 3.017% |
| `COCCCN(Cc1ccc(F)cc1Cl)C1CCS(=O)(=O)C1` (stereo not given) | 0.8862% | 9.282% | 2.278% | 5.477% | 2.439% |
| `CCC(NC(=O)c1cnc(N(C)C)nc1C)c1ccncc1` (stereo not given) | 0.5757% | -1.086% | 2.577% | -17.61% | 1.235% |
| `c1csc(-c2nc(CN3CCOC(Cn4cccn4)C3)cs2)c1` (stereo not given) | -3.171% | -1.653% | 2.857% | -12.25% | 3.725% |
| `CCc1nnc(CNC(=O)CCN2CCN(c3cccc(C)c3)CC2)s1` | -2.391% | 2.415% | 1.809% | -1.537% | 2.513% |
| `CC(=O)N1CCC(c2nc3ccc(-c4ccnn4C)cn3n2)CC1` | 4.344% | -0.5189% | -4.562% | -10.3% | 2.857% |
| `COc1ccc2nc(O)c(CN(C)Cc3ncc[nH]3)cc2c1` | -4.197% | 1.212% | 2.857% | -114.6% | -0.9662% |
| `CCSCCC(=O)NCCn1nc2ccccn2c1=O` | -7.06% | 1.278% | -4.132% | -3.376% | 3.804% |
| `Cc1cc(CN2CCN(c3ccc4nncn4n3)C(C)C2)no1` (stereo not given) | -2.638% | -2.446% | 3.855% | 9.48% | 0.7634% |
| `CCNc1cc2c(nn1)CCN(C(=O)c1cccnc1N(C)C)C2` | -5.21% | -1.408% | 8.238% | -14.16% | 4.142% |
| `C[C@@H]1CN(C(=O)c2cccc(F)c2)C[C@]12CCN(c1ccsc1)C2=O` | -5.473% | -0.9628% | 3.25% | 2.732% | 5.882% |
| `CCC(=O)N1CCC2(CC1)CC(CC(=O)NC1CC1)c1ccccc1O2` (stereo not given) | -3.634% | 6.231% | 5.277% | -7.178% | 4.854% |
| `Fc1cnc(N2C[C@@H](OCC3CCOCC3)[C@H]3OCCC[C@H]32)nc1` | - | 2.856% | 0.7426% | -12.64% | 2.21% |
| `CN(C)C(=O)Cc1nc(CN2CCOC(Cn3cccn3)C2)cs1` (stereo not given) | -4.131% | 2.008% | 3.644% | 0.4618% | 7.609% |
| `CN(C)C(=O)CN1CCCC(CCCc2ccccn2)(C(N)=O)C1` (stereo not given) | - | 6.546% | 2.941% | 9.557% | 4.255% |
| `COc1cccc(NC(=O)N2CC[C@@H]3CN(C)S(=O)(=O)[C@@H]3CC2)c1` | - | -0.6237% | -0.3636% | 1.136% | 1.676% |
| `CC(C)CCOCCNC(=O)Nc1ccc(F)c(C(N)=O)c1` | 0.5111% | -0.08039% | -7.239% | -18.3% | 5.983% |
| `Cn1ncc(C(=O)N2CCN(S(C)(=O)=O)CC2)c1Cl` | 0.9067% | -5.573% | -19.4% | 5.801% | -0.8696% |
| `C[C@@H]1CN(C2Cc3ccccc3C2)CC[C@@]1(O)C1CCOCC1` | 2.09% | 8.378% | -0.6075% | 1.058% | 6.931% |
| `CCc1cc(=O)n(CC(=O)N2CCC(C)CC2)c(-c2ccccc2)n1` | -0.7638% | 3.28% | 6.378% | -35.38% | 3.125% |
| `CCCN1CCC(CNC(=O)C2(c3cc(C)cc(C)c3)CCC2)C1` (stereo not given) | 22.23% | -1.56% | 2.682% | -28.88% | 6.358% |
| `CCOC(=O)c1ccc(CNC(=O)c2ccncc2Cl)o1` | 3.216% | 10.45% | 4.912% | -2.087% | 0% |
| `c1cncc(CN2CC[C@H]3O[C@@H](COCC4CCOCC4)CC[C@H]32)c1` | -0.4691% | 2.687% | 4.5% | -6.772% | -0.9804% |
| `c1ccc2c(c1)nnn2CCCNC1CCOC2(CCOCC2)C1` (stereo not given) | 2.927% | 5.772% | -2.155% | -11.53% | 1.293% |
| `CC(C)c1nnc2n1CCN(C(=O)c1ccc(S(C)(=O)=O)cc1)C2` | 3.499% | 9.117% | 8.855% | -8.667% | -2.521% |
| `CCOc1ccc(NC(=O)NC2CCc3[nH]ncc3C2)cn1` (stereo not given) | 1.484% | -0.9977% | 0.7212% | -8.212% | 8.861% |
| `CCN(CCCN1CCOCC1)C(=O)c1cnn(CC)c1` | 3.186% | -0.2501% | 4.121% | 9.674% | 5.319% |
| `CCSc1ccccc1C(=O)N1CC2(COC(C)(C)OC2)C1` | -0.9878% | 3.837% | -0.6342% | 4.637% | 2.062% |
| `Cc1cc2ccccc2n1CC(=O)N[C@@H](C)C(=O)O` | 1.052% | 5.791% | -1.562% | -3.988% | 0.5181% |
| `N#Cc1ccccc1N1CCCN(C(=O)CCc2cccs2)CC1` | -0.3894% | 4.443% | -1.136% | -37.88% | -1.729% |
| `Cc1ccc(CN2CC[C@@H](O)[C@@H]2Cc2cnn(C)c2)o1` | 0.3127% | 4.008% | 5% | -0.5792% | 12.75% |
| `CN(Cc1ccco1)[C@@H]1CN(CC2CCOCC2)C[C@@H]2CCCO[C@@H]21` | 3.867% | -0.34% | 2.349% | 1.739% | 2.041% |

Repeated from the top, 5 entries:

With C[C@@H]1CN(C(=O)c2ccc(C#N)nc2)C[C@@]1(O)C1CC1 the screen gave MtTrpRS: -1.161%; PfKRS1: -0.2544%; CoaBC: 13.43%; ClpP1P2: -19.43%; TcHisRS: -1.667%.
With COc1ccc(OC)c(CN2CCC(c3cc(O)nc(C)n3)C2)c1 (stereo not given) the screen gave PfKRS1: 0.8033%; CoaBC: 1.942%; ClpP1P2: -8.676%; TcHisRS: 8.791%.
With Cc1noc(CCNC(=O)NCc2ccc(N3CCCCC3)cc2)n1 the screen gave MtTrpRS: -2.166%; PfKRS1: -0.3041%; CoaBC: 3.893%; ClpP1P2: -1.295%; TcHisRS: -1.064%.
With COCCNC(=O)CCNc1cc(C)nc(-c2ccncc2)n1 the screen gave MtTrpRS: 3.154%; PfKRS1: 4.27%; CoaBC: 2.116% & 23.54%; ClpP1P2: 0.8799%; TcHisRS: 0.8772%.
With CC1c2ncc(COc3cccnc3)n2CCN1Cc1ccco1 (stereo not given) the screen gave PfKRS1: 1.202%; CoaBC: 6.807%; ClpP1P2: -5.713%; TcHisRS: 4.523%.